Patent publication US6878733B1, “Formulations for pharmaceutical agents ionizable as free acids or free bases” (Sugen, Inc., priority 1999, dated 2005)
At least one structure is not confirmed: it was looked up by name or label, or the drawing left a doubt.

Assay: Solubility of in situ salts versus free acid
Format: physicochemical
Settings: salt compared with the free acid

SMILES: Cc1[nH]c(C=C2C(=O)Nc3ccccc32)c(C)c1CCC(=O)[O-].[Na+] [Sodium salt, sodium salt of 3-[2,4-Dimethyl-5-(2-oxo-1,2-dihydro-indol-3-ylidenemethyl)-1H-pyrrol-3-yl]-propionic acid]
- enhancement of aqueous solubility by in situ salt formation: about 1000 times
